Where a chain is given by its changes, count along the chain named. No constants are given. Whether binding was seen depends on the method and setting. In cells and extracts the contact can be indirect. Some results given as binding are weak or reduced against the parent protein; the word gives no strength. For part of these data: Tags and fused reporters may be left off the sequences shown.
Columns and labels:
Test in all cases: co-IP; HUVEC lysates (500 ug protein; wildtype, Ad-GFP, Ad-Trx or Ad-TD cells, with or without ox-LDL stimulation) immunoprecipitated with 2 ug Trx antibody overnight at 4 C, protein A and protein G-sepharose; immunoblot for Smad3 and pSmad3; normal rabbit IgG as negative control
[1] = target: T1, redox-inactive dominant-negative mutant thioredoxin1 (TD; C32S/C35S) overexpressed from adenovirus (Ad-TD) (human) (UniProt P10599)
T1 sequence: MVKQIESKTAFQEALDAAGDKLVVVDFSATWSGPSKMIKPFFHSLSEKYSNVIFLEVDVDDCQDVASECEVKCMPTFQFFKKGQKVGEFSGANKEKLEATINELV

Protein sequences, listed by entry. Tags and fused reporters are not part of them.
UniProt P84022: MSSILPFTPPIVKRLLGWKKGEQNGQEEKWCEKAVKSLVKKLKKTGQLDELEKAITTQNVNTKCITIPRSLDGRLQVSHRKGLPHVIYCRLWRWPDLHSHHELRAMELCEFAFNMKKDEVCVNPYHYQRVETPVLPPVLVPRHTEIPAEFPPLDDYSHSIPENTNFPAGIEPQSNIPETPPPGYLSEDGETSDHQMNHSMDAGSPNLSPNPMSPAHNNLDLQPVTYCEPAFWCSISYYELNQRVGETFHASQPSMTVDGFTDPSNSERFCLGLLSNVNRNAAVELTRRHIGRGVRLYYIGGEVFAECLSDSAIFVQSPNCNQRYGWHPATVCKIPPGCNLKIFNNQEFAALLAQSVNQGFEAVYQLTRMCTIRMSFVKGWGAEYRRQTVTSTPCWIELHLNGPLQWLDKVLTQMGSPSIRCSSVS

[2] = target: T2, thioredoxin1 (endogenous in HUVECs) (human (endogenous in HUVECs)) (UniProt P10599)
T2 sequence: T1 sequence with S32C, S35C

[3] = target: T3, thioredoxin1 overexpressed from adenovirus (Ad-Trx) (human) (UniProt P10599)
T3 sequence: T1 sequence with S32C, S35C

Measured: binding

Smad3 (endogenous in HUVECs) (from UniProt P84022 1-425)
binds: all assays above
